# Measurements from the supplement of paper PMC4604168 (melanoma cell lines).
# This is one part of the list. Many values rest on one well or one pass, so single values are uncertain.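 Cells were imaged in 1,536-well plates, and nuclei stained with an antibody against cleaved PARP were counted against all DNA-stained nuclei to give the apoptosis fraction. Screening doses were chosen to leave most cells alive, and resting and induced cleaved-PARP levels differ strongly between cell lines.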
# Columns and labels:
# Assay in all cases: cleaved PARP positive nuclei fraction relative to DMSO control; melanoma cells; higher = more apoptosis
# Conditions in all cases: library dose: low library concentration; 72 h
# [1] = system: 501Mel
# [2] = system: A101D
# [3] = system: A2058
# [4] = system: C32
# [5] = system: CBRC008 (line from a melanoma biopsy)
# [6] = system: CBRC014 (line from a melanoma biopsy)
# [7] = system: CBRC016 (line from a melanoma biopsy)
# [8] = system: CBRC017 (line from a melanoma biopsy)
Structure (SMILES),cleaved PARP positive nuclei fraction [1],cleaved PARP positive nuclei fraction [2],cleaved PARP positive nuclei fraction [3],cleaved PARP positive nuclei fraction [4],cleaved PARP positive nuclei fraction [5],cleaved PARP positive nuclei fraction [6],cleaved PARP positive nuclei fraction [7],cleaved PARP positive nuclei fraction [8]
"OCc1c[nH]c2ccccc12 [Indole-3-carbinol] + COC(=O)c1sccc1S(=O)(=O)Nc1ccc(Nc2ccccc2)cc1OC [GSK0660] (first compound 0.8 µM, partner dose 1 µM)",51.8%,19.1%,63.8%,96.2%,33.1%,81.9%,48.6%,84.8%
"C=CCNC1=C2C[C@@H](C)C[C@H](OC)[C@H](O)[C@@H](C)/C=C(\C)[C@H](OC(N)=O)[C@@H](OC)/C=C\C=C(/C)C(=O)NC(=CC1=O)C2=O [Tanespimycin] + CCc1ccc(CCOc2ccc(CC3SC(=O)NC3=O)cc2)nc1 [pioglitazone] (first compound 0.002 µM, partner dose 2 µM)",150%,8.33%,143%,163%,270%,95.7%,196%,71.4%
"C=CCNC1=C2C[C@@H](C)C[C@H](OC)[C@H](O)[C@@H](C)/C=C(\C)[C@H](OC(N)=O)[C@@H](OC)/C=C\C=C(/C)C(=O)NC(=CC1=O)C2=O [Tanespimycin] + Oc1nc(-c2ccc(C(F)(F)F)cc2)nc2c1CSCC2 [XAV939] (first compound 0.002 µM, partner dose 2 µM)",67.2%,22.9%,479%,99.1%,67%,112%,79.7%,63%
"OCc1c[nH]c2ccccc12 [Indole-3-carbinol] + Cc1cc([N+](=O)[O-])ccc1NS(=O)(=O)c1cc(Cl)ccc1Cl [FH535] (first compound 0.8 µM, partner dose 1 µM)",76.7%,55.9%,162%,44.8%,859%,127%,1150%,1250%
"C=CCNC1=C2C[C@@H](C)C[C@H](OC)[C@H](O)[C@@H](C)/C=C(\C)[C@H](OC(N)=O)[C@@H](OC)/C=C\C=C(/C)C(=O)NC(=CC1=O)C2=O [Tanespimycin] + COc1cc2ncnc(Nc3ccc(Oc4ccccc4)cc3)c2cc1OC [SrcI1] (first compound 0.002 µM, partner dose 2 µM)",53%,35.7%,36.9%,29.5%,265%,92.3%,90.7%,95.2%
"Clc1ccc(Nc2nnc(Cc3ccncc3)c3ccccc23)cc1 [vatalanib] + O=C1NC(=O)/C(=C/c2ccc(-c3ccc(F)cc3O)o2)S1 [AS252424] (first compound 2 µM, partner dose 1 µM)",56.9%,46.2%,57.5%,101%,214%,132%,101%,89%
"CC(=O)c1c(C)c2cnc(Nc3ccc(N4CCNCC4)cn3)nc2n(C2CCCC2)c1=O [palbociclib] + COC(=O)c1sccc1S(=O)(=O)Nc1ccc(Nc2ccccc2)cc1OC [GSK0660] (first compound 0.04 µM, partner dose 1 µM)",357%,40.2%,36.9%,50.2%,42.1%,287%,38.3%,218%
"CC(=O)c1c(C)c2cnc(Nc3ccc(N4CCNCC4)cn3)nc2n(C2CCCC2)c1=O [palbociclib] + Oc1cc(-c2nc(-c3ccccc3)[nH]c2-c2ccncc2)ccc1Cl [L779450] (first compound 0.04 µM, partner dose 0.2 µM)",44.5%,17.2%,37%,135%,46.7%,132%,33.6%,88.3%
"OCc1c[nH]c2ccccc12 [Indole-3-carbinol] + CC(C)CCN1c2nc(Nc3cc(F)c(O)c(F)c3)ncc2N(C)C(=O)C1C [BID1870] (first compound 0.8 µM, partner dose 0.2 µM)",76.4%,26%,191%,102%,71.7%,89.4%,78.6%,151%
"Clc1ccc(Nc2nnc(Cc3ccncc3)c3ccccc23)cc1 [vatalanib] + COc1ccc2c(c1)CCC1C2CCC2(C)C(NCCCCCCN3C(=O)C=CC3=O)CCC12 [U73122] (first compound 2 µM, partner dose 0.4 µM)",76.2%,67.5%,291%,171%,191%,125%,108%,120%
"Clc1ccc(Nc2nnc(Cc3ccncc3)c3ccccc23)cc1 [vatalanib] + CCCCCCCCCCCC1=C(O)C(=O)C=C(O)C1=O [Embelin] (first compound 2 µM, partner dose 1.2 µM)",78.2%,62.8%,70.7%,44.1%,93.4%,119%,62.5%,94.6%
"Clc1ccc(Nc2nnc(Cc3ccncc3)c3ccccc23)cc1 [vatalanib] + Cc1cc([N+](=O)[O-])ccc1NS(=O)(=O)c1cc(Cl)ccc1Cl [FH535] (first compound 2 µM, partner dose 1 µM)",80.7%,65.7%,22.9%,129%,156%,145%,455%,244%
"OCc1c[nH]c2ccccc12 [Indole-3-carbinol] + Oc1nc(-c2ccc(C(F)(F)F)cc2)nc2c1CSCC2 [XAV939] (first compound 0.8 µM, partner dose 2 µM)",58.1%,21.9%,184%,123%,51.9%,84.4%,97.5%,68%
"C=CCNC1=C2C[C@@H](C)C[C@H](OC)[C@H](O)[C@@H](C)/C=C(\C)[C@H](OC(N)=O)[C@@H](OC)/C=C\C=C(/C)C(=O)NC(=CC1=O)C2=O [Tanespimycin] + COC(=O)c1sccc1S(=O)(=O)Nc1ccc(Nc2ccccc2)cc1OC [GSK0660] (first compound 0.002 µM, partner dose 1 µM)",34.8%,23.8%,53.9%,34.9%,58.1%,88.7%,53.2%,63.2%
"C=CCNC1=C2C[C@@H](C)C[C@H](OC)[C@H](O)[C@@H](C)/C=C(\C)[C@H](OC(N)=O)[C@@H](OC)/C=C\C=C(/C)C(=O)NC(=CC1=O)C2=O [Tanespimycin] + CCCCCCCCCCCC1=C(O)C(=O)C=C(O)C1=O [Embelin] (first compound 0.002 µM, partner dose 1.2 µM)",139%,27.3%,30.2%,40.1%,27.5%,90%,68.2%,106%
"CC(=O)c1c(C)c2cnc(Nc3ccc(N4CCNCC4)cn3)nc2n(C2CCCC2)c1=O [palbociclib] + O=c1cc(-c2cccc3c2Sc2ccccc2S3)oc(N2CCOCC2)c1 [KU55933] (first compound 0.04 µM, partner dose 1 µM)",107%,34.3%,58.4%,75.3%,201%,104%,44.3%,101%
"Clc1ccc(Nc2nnc(Cc3ccncc3)c3ccccc23)cc1 [vatalanib] + c1cc(-c2cnn3cc(-c4ccc(OCCN5CCCCC5)cc4)cnc23)ccn1 [Dorsomorphin] (first compound 2 µM, partner dose 0.4 µM)",37.6%,68.7%,126%,74.4%,22.2%,157%,87.6%,98.4%
"CC(=O)c1c(C)c2cnc(Nc3ccc(N4CCNCC4)cn3)nc2n(C2CCCC2)c1=O [palbociclib] + c1cc(-c2cnn3cc(-c4ccc(OCCN5CCCCC5)cc4)cnc23)ccn1 [Dorsomorphin] (first compound 0.04 µM, partner dose 0.4 µM)",105%,82.5%,43.6%,312%,36.3%,134%,14.1%,97.9%
"C=CCNC1=C2C[C@@H](C)C[C@H](OC)[C@H](O)[C@@H](C)/C=C(\C)[C@H](OC(N)=O)[C@@H](OC)/C=C\C=C(/C)C(=O)NC(=CC1=O)C2=O [Tanespimycin] + COc1cc(N2CCC(N3CCN(C)CC3)CC2)ccc1Nc1ncc(Cl)c(Nc2ccccc2S(=O)(=O)C(C)C)n1 [NVP-TAE684] (first compound 0.002 µM, partner dose 0.08 µM)",56.2%,13.5%,60.4%,52.9%,104%,121%,38.1%,104%
"Clc1ccc(Nc2nnc(Cc3ccncc3)c3ccccc23)cc1 [vatalanib] + O=C(Nc1ccccc1)c1cc([N+](=O)[O-])ccc1Cl [GW9662] (first compound 2 µM, partner dose 2 µM)",195%,30.6%,63.9%,77.6%,82.1%,141%,112%,110%
"C=CCNC1=C2C[C@@H](C)C[C@H](OC)[C@H](O)[C@@H](C)/C=C(\C)[C@H](OC(N)=O)[C@@H](OC)/C=C\C=C(/C)C(=O)NC(=CC1=O)C2=O [Tanespimycin] + COc1ccc2c(c1)CCC1C2CCC2(C)C(NCCCCCCN3C(=O)C=CC3=O)CCC12 [U73122] (first compound 0.002 µM, partner dose 0.4 µM)",102%,35.8%,66.4%,36.4%,66.4%,97.7%,44.8%,84.9%
"C=CCNC1=C2C[C@@H](C)C[C@H](OC)[C@H](O)[C@@H](C)/C=C(\C)[C@H](OC(N)=O)[C@@H](OC)/C=C\C=C(/C)C(=O)NC(=CC1=O)C2=O [Tanespimycin] + O=S(=O)(c1ccccc1)N(CC(F)(F)F)c1ccc(C(O)(C(F)(F)F)C(F)(F)F)cc1 [T0901317] (first compound 0.002 µM, partner dose 1.4 µM)",185%,75.5%,98.2%,101%,332%,114%,34%,141%
"OCc1c[nH]c2ccccc12 [Indole-3-carbinol] + c1cc(-c2cnn3cc(-c4ccc(OCCN5CCCCC5)cc4)cnc23)ccn1 [Dorsomorphin] (first compound 0.8 µM, partner dose 0.4 µM)",96.8%,23.8%,203%,99.4%,72.2%,120%,71.1%,81.7%

# Some of the entries so far, with bars between the fields:
Structure (SMILES) | cleaved PARP positive nuclei fraction [1] | cleaved PARP positive nuclei fraction [2] | cleaved PARP positive nuclei fraction [3] | cleaved PARP positive nuclei fraction [4] | cleaved PARP positive nuclei fraction [5] | cleaved PARP positive nuclei fraction [6] | cleaved PARP positive nuclei fraction [7] | cleaved PARP positive nuclei fraction [8]
C=CCNC1=C2C[C@@H](C)C[C@H](OC)[C@H](O)[C@@H](C)/C=C(\C)[C@H](OC(N)=O)[C@@H](OC)/C=C\C=C(/C)C(=O)NC(=CC1=O)C2=O [Tanespimycin] + Oc1nc(-c2ccc(C(F)(F)F)cc2)nc2c1CSCC2 [XAV939] (first compound 0.002 µM, partner dose 2 µM) | 67.2% | 22.9% | 479% | 99.1% | 67% | 112% | 79.7% | 63%
C=CCNC1=C2C[C@@H](C)C[C@H](OC)[C@H](O)[C@@H](C)/C=C(\C)[C@H](OC(N)=O)[C@@H](OC)/C=C\C=C(/C)C(=O)NC(=CC1=O)C2=O [Tanespimycin] + CCCCCCCCCCCC1=C(O)C(=O)C=C(O)C1=O [Embelin] (first compound 0.002 µM, partner dose 1.2 µM) | 139% | 27.3% | 30.2% | 40.1% | 27.5% | 90% | 68.2% | 106%
